Data as given in PubChem BioAssay AID1671195 (Yale University, 2021)

- Assay: 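Genes whose knockdown alters LDL uptake in liver cancer cells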 (primary screen)
- Cell system: human Huh7 hepatoma cells
- Reagent: siRNA pool against human genes, 18 nM
- Timing: about 2 to 2.5 days of knockdown, then 8 h LDL uptake
- Treatment: DiI-labelled LDL at 30 µg/ml for 8 h, in lipoprotein-deficient serum medium
- Detection: 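Per-cell DiI-LDL intensity by automated imaging; well means scaled to the plate median and given as a robust z-score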
- Reading the numbers: robust z-score: higher = more LDL uptake after knockdown
- Hit rule: 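Active when two or more replicates show a robust z-score above 2 or below -2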
Shown is an unselected part of about 22,000 deposited reagents. Over the whole deposit, about 1,510 (6.9%) are marked active. 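Active includes knockdowns raising or lowering LDL uptake; positive z-scores mean more uptake, negative mean less.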 A number with no mark means an inactive call. No sequences are given here.

After knock-down of NFIA the results were robust z-score, replicate 1 = 2.57 (active); robust z-score, replicate 2 = 2.26; robust z-score, replicate 3 = 2.25. MSX2 gave robust z-score, replicate 1 = 0.00763; robust z-score, replicate 2 = -0.0798; robust z-score, replicate 3 = 0.155. For ZNF649, the values are robust z-score, replicate 1 = -0.218; robust z-score, replicate 2 = -0.169; robust z-score, replicate 3 = 0.227. For CCDC144BP, the values are robust z-score, replicate 1 = -1.22; robust z-score, replicate 2 = -0.963; robust z-score, replicate 3 = -1.21. For LEF1 the deposit lists robust z-score, replicate 1 = 0.84; robust z-score, replicate 2 = 0.985; robust z-score, replicate 3 = 0.687. TNFRSF11B gave robust z-score, replicate 1 = 0.356; robust z-score, replicate 2 = 0.545; robust z-score, replicate 3 = -0.0128.

HYI scored robust z-score, replicate 1 = -1.31; robust z-score, replicate 2 = -1.18; robust z-score, replicate 3 = -1.27. After knock-down of SFXN1, the record shows robust z-score, replicate 1 = -0.908; robust z-score, replicate 2 = -0.866; robust z-score, replicate 3 = -0.688. Against OTUB1, the values are robust z-score, replicate 1 = -0.636; robust z-score, replicate 2 = -1.06; robust z-score, replicate 3 = -0.551. LOC401905 (retired record) showed robust z-score, replicate 1 = -0.676; robust z-score, replicate 2 = -1.17; robust z-score, replicate 3 = -1.07. COMTD1 gave robust z-score, replicate 1 = -0.791; robust z-score, replicate 2 = -0.81; robust z-score, replicate 3 = -0.0448. GASAL1 showed robust z-score, replicate 1 = 2.29 (active); robust z-score, replicate 2 = 1.6; robust z-score, replicate 3 = 2.26.

With knock-down of NPIPB13, the record shows robust z-score, replicate 1 = -0.098; robust z-score, replicate 2 = -0.0685; robust z-score, replicate 3 = -0.14. Depletion of NAALADL1 gave: robust z-score, replicate 1 = 0.419; robust z-score, replicate 2 = 0.947; robust z-score, replicate 3 = 0.546. Against SIRAL2, the entry reads robust z-score, replicate 1 = -0.718; robust z-score, replicate 2 = 1.32; robust z-score, replicate 3 = -0.456. Knock-down of CCDC178 gave: robust z-score, replicate 1 = -0.736; robust z-score, replicate 2 = -0.0121; robust z-score, replicate 3 = -0.376. Depletion of INTS10 gave: robust z-score, replicate 1 = -0.607; robust z-score, replicate 2 = -1.28; robust z-score, replicate 3 = -0.943. Against LOC391528 (retired record) the deposit lists robust z-score, replicate 1 = -0.603; robust z-score, replicate 2 = -0.937; robust z-score, replicate 3 = -1.09.

Against SLFN5, the values are robust z-score, replicate 1 = -0.663; robust z-score, replicate 2 = 0.983; robust z-score, replicate 3 = -0.0945. Silencing of LOC343839 (retired record) came out at: robust z-score, replicate 1 = 0.295; robust z-score, replicate 2 = 0.781; robust z-score, replicate 3 = 0.687. After knock-down of LINC00484, the screen gave robust z-score, replicate 1 = -0.0805; robust z-score, replicate 2 = -0.191; robust z-score, replicate 3 = -0.212. With knock-down of HERC4, the screen gave robust z-score, replicate 1 = -1.09; robust z-score, replicate 2 = 0.0913; robust z-score, replicate 3 = 1.26. Knock-down of SLC4A1AP resulted in: robust z-score, replicate 1 = 0.662; robust z-score, replicate 2 = 1.1; robust z-score, replicate 3 = 0.507. With knock-down of NECTIN4 the results were robust z-score, replicate 1 = -0.977; robust z-score, replicate 2 = -0.946; robust z-score, replicate 3 = -0.691.

A stretch taken from the entries so far, as a working copy:
LINC00484: robust z-score, replicate 1 = -0.0805; robust z-score, replicate 2 = -0.191; robust z-score, replicate 3 = -0.212
HERC4: robust z-score, replicate 1 = -1.09; robust z-score, replicate 2 = 0.0913; robust z-score, replicate 3 = 1.26
